Assay results: the supplement of paper PMC10849652
The other results are listed elsewhere or left out.

By UniProt entry, the sequences of proteins in these tests, tags left out. Where a name states a change or a piece, a line headed by the entry shows the natural chain unless it says otherwise.
UniProt P26885: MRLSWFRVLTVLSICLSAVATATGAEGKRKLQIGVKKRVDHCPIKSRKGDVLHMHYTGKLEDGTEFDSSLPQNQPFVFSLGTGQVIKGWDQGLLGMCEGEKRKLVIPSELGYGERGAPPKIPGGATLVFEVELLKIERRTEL
UniProt B1AJZ9: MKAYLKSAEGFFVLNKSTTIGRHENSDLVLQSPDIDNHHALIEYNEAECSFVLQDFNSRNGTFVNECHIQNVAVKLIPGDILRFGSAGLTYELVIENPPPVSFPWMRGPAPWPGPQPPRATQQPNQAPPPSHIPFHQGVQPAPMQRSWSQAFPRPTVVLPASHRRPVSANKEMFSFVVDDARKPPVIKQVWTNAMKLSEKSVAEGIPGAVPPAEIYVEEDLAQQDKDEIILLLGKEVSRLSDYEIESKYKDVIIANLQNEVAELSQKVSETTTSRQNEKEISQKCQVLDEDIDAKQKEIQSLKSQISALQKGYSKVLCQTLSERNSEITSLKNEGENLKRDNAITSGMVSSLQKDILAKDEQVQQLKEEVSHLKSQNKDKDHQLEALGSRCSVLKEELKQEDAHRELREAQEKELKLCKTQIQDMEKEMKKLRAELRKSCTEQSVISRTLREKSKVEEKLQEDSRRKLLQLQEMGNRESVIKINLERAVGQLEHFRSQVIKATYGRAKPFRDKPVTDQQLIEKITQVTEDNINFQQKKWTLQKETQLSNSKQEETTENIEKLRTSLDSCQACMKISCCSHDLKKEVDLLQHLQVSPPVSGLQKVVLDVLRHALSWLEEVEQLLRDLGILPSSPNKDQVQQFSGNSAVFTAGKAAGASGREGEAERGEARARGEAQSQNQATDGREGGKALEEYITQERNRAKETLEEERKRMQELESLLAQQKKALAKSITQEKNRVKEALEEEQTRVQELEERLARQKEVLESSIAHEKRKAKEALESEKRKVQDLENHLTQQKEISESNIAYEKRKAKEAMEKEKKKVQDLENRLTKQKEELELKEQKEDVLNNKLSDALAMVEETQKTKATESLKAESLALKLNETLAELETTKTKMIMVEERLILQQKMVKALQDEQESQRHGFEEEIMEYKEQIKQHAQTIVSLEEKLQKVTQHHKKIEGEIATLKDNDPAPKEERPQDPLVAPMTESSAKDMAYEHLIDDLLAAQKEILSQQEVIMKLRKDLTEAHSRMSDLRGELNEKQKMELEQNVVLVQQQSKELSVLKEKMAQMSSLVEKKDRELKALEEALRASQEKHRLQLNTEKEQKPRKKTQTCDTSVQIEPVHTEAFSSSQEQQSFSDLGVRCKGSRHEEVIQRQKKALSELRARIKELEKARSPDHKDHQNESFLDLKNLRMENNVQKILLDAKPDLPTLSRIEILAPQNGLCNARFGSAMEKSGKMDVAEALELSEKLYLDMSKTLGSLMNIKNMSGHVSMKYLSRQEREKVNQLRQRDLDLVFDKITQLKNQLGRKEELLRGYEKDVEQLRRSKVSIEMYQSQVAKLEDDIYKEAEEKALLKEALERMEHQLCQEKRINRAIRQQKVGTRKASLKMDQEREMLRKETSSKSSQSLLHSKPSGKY
UniProt Q9UKB1: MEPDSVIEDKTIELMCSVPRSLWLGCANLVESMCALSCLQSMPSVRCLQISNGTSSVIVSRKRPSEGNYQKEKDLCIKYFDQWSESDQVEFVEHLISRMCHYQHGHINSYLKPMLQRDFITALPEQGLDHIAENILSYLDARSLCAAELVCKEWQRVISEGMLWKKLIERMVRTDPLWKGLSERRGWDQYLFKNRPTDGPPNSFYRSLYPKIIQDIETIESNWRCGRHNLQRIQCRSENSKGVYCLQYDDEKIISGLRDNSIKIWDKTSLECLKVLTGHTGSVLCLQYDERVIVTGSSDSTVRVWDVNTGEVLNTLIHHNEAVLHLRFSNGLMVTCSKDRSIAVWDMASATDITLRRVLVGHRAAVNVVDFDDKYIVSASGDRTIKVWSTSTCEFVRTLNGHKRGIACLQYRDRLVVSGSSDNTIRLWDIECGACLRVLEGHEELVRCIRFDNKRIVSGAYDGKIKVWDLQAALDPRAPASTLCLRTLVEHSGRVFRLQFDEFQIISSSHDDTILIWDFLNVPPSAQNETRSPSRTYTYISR
UniProt Q8N3Y1: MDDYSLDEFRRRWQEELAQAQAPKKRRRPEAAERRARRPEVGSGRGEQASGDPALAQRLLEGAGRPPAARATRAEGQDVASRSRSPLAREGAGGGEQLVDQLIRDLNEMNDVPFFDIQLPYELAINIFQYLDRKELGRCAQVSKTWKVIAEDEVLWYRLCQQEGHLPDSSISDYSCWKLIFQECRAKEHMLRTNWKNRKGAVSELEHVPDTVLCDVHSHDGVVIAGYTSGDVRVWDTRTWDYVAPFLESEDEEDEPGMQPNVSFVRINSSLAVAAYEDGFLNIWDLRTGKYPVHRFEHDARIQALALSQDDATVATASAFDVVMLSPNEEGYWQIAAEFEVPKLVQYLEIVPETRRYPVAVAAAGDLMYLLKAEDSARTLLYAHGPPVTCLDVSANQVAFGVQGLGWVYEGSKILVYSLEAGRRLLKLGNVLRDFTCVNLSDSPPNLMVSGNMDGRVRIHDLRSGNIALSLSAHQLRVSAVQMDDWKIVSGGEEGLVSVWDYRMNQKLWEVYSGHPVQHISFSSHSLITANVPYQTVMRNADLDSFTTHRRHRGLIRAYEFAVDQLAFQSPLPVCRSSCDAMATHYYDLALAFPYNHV
UniProt Q9UHY8: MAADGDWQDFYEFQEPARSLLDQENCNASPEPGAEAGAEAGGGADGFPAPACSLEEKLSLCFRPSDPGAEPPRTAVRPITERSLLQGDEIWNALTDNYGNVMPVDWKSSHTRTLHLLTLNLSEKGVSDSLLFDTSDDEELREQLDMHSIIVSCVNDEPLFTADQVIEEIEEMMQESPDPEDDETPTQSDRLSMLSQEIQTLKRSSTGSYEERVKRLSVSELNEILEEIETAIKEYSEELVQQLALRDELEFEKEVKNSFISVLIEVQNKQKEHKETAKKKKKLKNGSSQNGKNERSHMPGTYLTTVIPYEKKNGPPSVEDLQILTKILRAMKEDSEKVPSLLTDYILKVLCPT
UniProt Q9BSK4: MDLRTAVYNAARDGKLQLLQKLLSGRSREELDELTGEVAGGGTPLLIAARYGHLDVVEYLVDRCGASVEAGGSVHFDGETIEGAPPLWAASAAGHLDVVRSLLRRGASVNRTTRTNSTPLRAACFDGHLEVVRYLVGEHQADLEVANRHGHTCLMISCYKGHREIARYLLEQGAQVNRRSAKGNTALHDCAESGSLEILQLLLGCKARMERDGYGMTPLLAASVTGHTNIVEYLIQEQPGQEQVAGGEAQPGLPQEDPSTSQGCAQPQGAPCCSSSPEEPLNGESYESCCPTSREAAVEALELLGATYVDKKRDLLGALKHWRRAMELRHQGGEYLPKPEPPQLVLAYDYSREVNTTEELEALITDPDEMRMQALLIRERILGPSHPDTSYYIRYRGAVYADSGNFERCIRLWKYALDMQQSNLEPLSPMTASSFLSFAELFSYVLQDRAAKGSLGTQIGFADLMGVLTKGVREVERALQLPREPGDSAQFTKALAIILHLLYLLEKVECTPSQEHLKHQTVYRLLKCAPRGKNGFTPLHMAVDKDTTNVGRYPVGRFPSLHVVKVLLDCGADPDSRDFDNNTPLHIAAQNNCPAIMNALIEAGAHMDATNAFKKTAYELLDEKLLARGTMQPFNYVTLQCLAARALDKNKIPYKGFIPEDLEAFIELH
UniProt Q96NB1: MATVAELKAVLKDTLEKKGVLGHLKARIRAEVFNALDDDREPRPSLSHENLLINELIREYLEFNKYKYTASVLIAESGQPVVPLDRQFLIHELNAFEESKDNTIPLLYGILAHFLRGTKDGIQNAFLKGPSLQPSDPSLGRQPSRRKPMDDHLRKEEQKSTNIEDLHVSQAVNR
UniProt Q8NFZ0: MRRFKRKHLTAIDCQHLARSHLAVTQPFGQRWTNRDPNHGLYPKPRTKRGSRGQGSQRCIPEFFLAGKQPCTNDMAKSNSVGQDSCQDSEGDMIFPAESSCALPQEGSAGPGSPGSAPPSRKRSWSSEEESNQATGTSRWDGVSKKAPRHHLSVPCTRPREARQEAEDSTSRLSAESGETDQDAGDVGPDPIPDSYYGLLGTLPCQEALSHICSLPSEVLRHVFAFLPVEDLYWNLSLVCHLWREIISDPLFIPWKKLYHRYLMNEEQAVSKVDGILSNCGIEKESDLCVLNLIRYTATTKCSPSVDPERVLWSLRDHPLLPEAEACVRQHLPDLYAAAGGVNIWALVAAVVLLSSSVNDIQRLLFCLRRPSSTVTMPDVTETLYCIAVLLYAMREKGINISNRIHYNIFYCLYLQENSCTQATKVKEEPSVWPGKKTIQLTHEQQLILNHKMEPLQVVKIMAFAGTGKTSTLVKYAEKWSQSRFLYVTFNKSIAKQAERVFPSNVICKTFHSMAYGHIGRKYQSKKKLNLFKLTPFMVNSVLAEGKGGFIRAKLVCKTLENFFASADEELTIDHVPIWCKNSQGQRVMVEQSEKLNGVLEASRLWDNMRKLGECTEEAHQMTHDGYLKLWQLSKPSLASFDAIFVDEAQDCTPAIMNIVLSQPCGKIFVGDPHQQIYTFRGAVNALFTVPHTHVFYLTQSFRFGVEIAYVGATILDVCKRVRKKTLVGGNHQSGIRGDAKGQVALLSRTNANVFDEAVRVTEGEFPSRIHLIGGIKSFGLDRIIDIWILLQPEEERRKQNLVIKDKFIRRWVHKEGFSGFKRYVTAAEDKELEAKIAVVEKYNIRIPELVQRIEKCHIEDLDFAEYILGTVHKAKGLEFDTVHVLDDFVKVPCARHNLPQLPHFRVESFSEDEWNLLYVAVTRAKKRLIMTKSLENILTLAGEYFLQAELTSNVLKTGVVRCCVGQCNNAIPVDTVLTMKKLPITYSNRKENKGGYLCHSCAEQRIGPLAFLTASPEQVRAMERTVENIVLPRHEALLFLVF
UniProt Q6PJ61: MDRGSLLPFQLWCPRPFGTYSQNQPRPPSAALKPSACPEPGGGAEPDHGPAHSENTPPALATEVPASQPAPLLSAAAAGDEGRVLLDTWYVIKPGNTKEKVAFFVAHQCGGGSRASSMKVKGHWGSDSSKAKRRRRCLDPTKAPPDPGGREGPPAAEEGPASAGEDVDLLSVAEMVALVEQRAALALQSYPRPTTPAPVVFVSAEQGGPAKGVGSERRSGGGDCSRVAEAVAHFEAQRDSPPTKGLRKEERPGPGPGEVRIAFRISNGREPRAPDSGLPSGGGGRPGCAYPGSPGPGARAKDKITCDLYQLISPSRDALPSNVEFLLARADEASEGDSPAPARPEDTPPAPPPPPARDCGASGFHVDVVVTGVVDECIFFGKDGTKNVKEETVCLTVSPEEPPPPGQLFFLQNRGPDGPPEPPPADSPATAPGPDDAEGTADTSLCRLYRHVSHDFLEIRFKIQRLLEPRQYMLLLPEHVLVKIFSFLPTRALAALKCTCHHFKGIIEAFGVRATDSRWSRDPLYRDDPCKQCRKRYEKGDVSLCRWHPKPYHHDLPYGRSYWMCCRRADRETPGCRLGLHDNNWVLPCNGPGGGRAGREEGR
UniProt Q8N6M3: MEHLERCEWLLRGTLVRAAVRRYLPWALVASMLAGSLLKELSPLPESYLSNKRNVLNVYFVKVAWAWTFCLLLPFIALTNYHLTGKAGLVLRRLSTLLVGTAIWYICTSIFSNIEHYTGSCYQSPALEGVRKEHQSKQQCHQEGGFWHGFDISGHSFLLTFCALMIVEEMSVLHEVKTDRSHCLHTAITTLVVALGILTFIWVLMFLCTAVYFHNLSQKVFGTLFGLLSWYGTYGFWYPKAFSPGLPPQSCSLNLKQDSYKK
UniProt P23142: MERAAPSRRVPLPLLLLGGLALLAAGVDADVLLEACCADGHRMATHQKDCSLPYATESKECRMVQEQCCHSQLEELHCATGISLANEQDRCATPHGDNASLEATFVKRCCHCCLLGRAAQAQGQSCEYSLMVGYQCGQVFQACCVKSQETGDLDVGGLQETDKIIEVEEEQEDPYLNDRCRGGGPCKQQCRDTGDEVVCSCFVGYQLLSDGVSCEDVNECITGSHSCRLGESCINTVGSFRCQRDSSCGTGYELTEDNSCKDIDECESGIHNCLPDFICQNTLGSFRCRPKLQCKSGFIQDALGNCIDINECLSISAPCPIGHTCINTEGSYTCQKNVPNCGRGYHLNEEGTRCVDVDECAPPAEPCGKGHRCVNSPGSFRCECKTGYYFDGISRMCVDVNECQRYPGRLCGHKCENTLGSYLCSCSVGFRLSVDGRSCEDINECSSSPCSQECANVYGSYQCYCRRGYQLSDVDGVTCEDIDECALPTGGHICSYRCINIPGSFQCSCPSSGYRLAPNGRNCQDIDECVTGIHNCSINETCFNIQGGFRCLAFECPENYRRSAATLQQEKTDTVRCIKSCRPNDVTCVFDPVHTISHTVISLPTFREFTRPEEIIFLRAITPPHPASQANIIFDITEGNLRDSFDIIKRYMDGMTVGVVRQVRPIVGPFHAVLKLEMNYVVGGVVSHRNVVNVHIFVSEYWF

Compound: CC(C)C1=C2N=C(C=C(N2N=C1)NCC3=CC=CC=C3)NCCCCCCN
Assay: log2 fold change, soluble protein after heating vs DMSO (PISA); higher = thermal stabilisation; K562 lysate, 10 uM; active = over 0.2 and 3.5 SD of the protein, either way, in both replicates (recomputed)
Summary of the method: (§1)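 Soluble protein was defined as the supernatant remaining after 21,000xg for 90 min, following pooling of heated aliquots and adjustment to 0.5% NP-40 at 4°C. Before that, crude K562 extract at 1 mg/mL protein in PBS pH 7.4 with 1 mM MgCl2 was treated with 10 μM compound for 30 min and heated for 3 min across 48°C-58°C. Quantification used TMTpro 16plex LC-MS/MS with channel sums equalised, and values are log-two fold changes in thermal stability relative to solvent controls from duplicates.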

Target | log2 fold change
FKBP2 (UniProt P26885) | inactive: 0.009
FHAD1 isoform 3 (UniProt B1AJZ9) | inactive: 0.059
FBXW11 (UniProt Q9UKB1) | inactive: -0.151
FKRP (UniProt Q9H9S5) | inactive: -0.1
FMC1 (UniProt Q96HJ9) | inactive: -0.026
FMR1 isoform 9 (UniProt Q06787) | inactive: -0.009
FBXW8 (UniProt Q8N3Y1) | inactive: 0.012
FGD6 (UniProt Q6ZV73) | inactive: -0.023
FEZ2 isoform 2 (UniProt Q9UHY8) | inactive: 0.001
FANCC (UniProt Q00597) | inactive: -0.001
FNBP4 isoform 2 (UniProt Q8N3X1) | inactive: -0.029
FMNL2 isoform 3 (UniProt Q96PY5) | inactive: 0.065
FBRSL1, A0A3B3IRR3 | inactive: -0.075
FAT2 (UniProt Q9NYQ8) | inactive: -0.314
FBXL12 (UniProt Q9NXK8) | inactive: 0.031
FARS2 (UniProt O95363) | inactive: 0.057
FBXO45 (UniProt P0C2W1) | inactive: 0.043
FEM1A (UniProt Q9BSK4) | inactive: 0.043
FIP1L1 isoform 3 (UniProt Q6UN15) | inactive: -0.049
FBXO44 isoform 2 (UniProt Q9H4M3) | inactive: -0.073
FOXJ2 (UniProt Q9P0K8) | inactive: 0.091
FLT4 (UniProt P35916) | inactive: -0.057
FBRS (UniProt J3KNZ9) | inactive: -0.026

Compound: CC1=C(C(CC(=O)N1)C2=CC=C(C=C2)C(F)(F)F)C(=O)NC3=C(C=C4C(=C3)C=NN4)F
Assay: as above
Summary of the method: as §1

Target | log2 fold change
FKBP2 (UniProt P26885) | inactive: 0.015
FOPNL (UniProt Q96NB1) | inactive: 0.091
FAM86B2 (UniProt P0C5J1) | inactive: -0.243
FBXW8 (UniProt Q8N3Y1) | inactive: -0.061
FGD6 (UniProt Q6ZV73) | inactive: 0.251
FEZ2 isoform 2 (UniProt Q9UHY8) | inactive: -0.038
FNBP4 isoform 2 (UniProt Q8N3X1) | inactive: -0.004
FMNL2 isoform 3 (UniProt Q96PY5) | inactive: -0.056
FBH1 isoform 2 (UniProt Q8NFZ0) | inactive: -0.039
FIZ1 (UniProt Q96SL8) | inactive: 0.012
FBRSL1, A0A3B3IRR3 | inactive: -0.01
FAT2 (UniProt Q9NYQ8) | inactive: -0.019
FBXL12 (UniProt Q9NXK8) | inactive: -0.059
FARS2 (UniProt O95363) | inactive: -0.154
FBXO45 (UniProt P0C2W1) | inactive: 0.015
FBXO46 (UniProt Q6PJ61) | inactive: 0.026
FITM2 (UniProt Q8N6M3) | inactive: -0.204
FBLN1 (UniProt P23142) | inactive: 0.089
FEM1A (UniProt Q9BSK4) | inactive: 0.027
FIP1L1 isoform 3 (UniProt Q6UN15) | inactive: -0.042
FBXO44 isoform 2 (UniProt Q9H4M3) | inactive: 0.074
FOXJ2 (UniProt Q9P0K8) | inactive: 0.041
FBRS (UniProt J3KNZ9) | inactive: 0.068
